In the assay the target is T1, Pub1 RRM3 (S. cerevisiae) (UniProt P32588).
T1 sequence: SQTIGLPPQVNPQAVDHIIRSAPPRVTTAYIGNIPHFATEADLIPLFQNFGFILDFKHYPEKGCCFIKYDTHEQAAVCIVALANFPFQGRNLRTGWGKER
Briefly: NMR titration.

Protein sequences, listed by entry. Tags and fused reporters are not part of them. Lines headed by an entry give the natural chain unless they say otherwise; changes in a name come on top.
UniProt P39935: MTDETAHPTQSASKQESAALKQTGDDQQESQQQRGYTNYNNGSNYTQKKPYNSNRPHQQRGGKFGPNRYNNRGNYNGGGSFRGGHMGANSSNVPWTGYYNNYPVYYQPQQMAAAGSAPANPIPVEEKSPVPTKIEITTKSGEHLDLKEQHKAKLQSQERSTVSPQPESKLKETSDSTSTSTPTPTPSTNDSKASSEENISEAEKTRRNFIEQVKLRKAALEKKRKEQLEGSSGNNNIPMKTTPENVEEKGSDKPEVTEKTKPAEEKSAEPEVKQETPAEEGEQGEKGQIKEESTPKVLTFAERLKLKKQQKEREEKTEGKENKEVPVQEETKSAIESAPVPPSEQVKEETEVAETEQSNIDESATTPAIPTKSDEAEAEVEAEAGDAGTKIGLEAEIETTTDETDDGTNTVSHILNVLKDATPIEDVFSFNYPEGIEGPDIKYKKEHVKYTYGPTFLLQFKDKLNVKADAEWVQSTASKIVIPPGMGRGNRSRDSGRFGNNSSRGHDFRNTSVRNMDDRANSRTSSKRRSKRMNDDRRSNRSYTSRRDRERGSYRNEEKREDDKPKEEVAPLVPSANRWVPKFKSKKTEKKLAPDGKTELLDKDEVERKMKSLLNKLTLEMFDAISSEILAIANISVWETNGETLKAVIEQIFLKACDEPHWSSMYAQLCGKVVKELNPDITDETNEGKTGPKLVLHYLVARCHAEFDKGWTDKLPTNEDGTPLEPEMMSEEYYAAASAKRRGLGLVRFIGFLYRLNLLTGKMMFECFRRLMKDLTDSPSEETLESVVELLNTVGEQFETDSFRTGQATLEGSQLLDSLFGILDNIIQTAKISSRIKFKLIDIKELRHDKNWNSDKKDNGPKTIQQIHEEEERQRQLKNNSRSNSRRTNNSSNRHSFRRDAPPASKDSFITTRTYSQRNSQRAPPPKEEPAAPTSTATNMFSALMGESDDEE

Results are given in words; binding and its absence hold for the method and conditions named. Binding calls can cover weak binding; strength is not graded here.

Consider “eIF4G1_(1-184) ΔBOX2 (from UniProt P39935) (domain or fragment)”, for which the binding entry is recorded as “binds”.
Take “eIF4G1_(1-184) ΔBOX1 (from UniProt P39935) (domain or fragment)”: the binding result is “binds weakly”.
